Experimental data reported in the supplement of paper PMC10849652.
The list shows a part of the results.

By UniProt entry, the sequences of proteins in these tests, tags left out. Where a name states a change or a piece, a line headed by the entry shows the natural chain unless it says otherwise.
UniProt A3KMH1: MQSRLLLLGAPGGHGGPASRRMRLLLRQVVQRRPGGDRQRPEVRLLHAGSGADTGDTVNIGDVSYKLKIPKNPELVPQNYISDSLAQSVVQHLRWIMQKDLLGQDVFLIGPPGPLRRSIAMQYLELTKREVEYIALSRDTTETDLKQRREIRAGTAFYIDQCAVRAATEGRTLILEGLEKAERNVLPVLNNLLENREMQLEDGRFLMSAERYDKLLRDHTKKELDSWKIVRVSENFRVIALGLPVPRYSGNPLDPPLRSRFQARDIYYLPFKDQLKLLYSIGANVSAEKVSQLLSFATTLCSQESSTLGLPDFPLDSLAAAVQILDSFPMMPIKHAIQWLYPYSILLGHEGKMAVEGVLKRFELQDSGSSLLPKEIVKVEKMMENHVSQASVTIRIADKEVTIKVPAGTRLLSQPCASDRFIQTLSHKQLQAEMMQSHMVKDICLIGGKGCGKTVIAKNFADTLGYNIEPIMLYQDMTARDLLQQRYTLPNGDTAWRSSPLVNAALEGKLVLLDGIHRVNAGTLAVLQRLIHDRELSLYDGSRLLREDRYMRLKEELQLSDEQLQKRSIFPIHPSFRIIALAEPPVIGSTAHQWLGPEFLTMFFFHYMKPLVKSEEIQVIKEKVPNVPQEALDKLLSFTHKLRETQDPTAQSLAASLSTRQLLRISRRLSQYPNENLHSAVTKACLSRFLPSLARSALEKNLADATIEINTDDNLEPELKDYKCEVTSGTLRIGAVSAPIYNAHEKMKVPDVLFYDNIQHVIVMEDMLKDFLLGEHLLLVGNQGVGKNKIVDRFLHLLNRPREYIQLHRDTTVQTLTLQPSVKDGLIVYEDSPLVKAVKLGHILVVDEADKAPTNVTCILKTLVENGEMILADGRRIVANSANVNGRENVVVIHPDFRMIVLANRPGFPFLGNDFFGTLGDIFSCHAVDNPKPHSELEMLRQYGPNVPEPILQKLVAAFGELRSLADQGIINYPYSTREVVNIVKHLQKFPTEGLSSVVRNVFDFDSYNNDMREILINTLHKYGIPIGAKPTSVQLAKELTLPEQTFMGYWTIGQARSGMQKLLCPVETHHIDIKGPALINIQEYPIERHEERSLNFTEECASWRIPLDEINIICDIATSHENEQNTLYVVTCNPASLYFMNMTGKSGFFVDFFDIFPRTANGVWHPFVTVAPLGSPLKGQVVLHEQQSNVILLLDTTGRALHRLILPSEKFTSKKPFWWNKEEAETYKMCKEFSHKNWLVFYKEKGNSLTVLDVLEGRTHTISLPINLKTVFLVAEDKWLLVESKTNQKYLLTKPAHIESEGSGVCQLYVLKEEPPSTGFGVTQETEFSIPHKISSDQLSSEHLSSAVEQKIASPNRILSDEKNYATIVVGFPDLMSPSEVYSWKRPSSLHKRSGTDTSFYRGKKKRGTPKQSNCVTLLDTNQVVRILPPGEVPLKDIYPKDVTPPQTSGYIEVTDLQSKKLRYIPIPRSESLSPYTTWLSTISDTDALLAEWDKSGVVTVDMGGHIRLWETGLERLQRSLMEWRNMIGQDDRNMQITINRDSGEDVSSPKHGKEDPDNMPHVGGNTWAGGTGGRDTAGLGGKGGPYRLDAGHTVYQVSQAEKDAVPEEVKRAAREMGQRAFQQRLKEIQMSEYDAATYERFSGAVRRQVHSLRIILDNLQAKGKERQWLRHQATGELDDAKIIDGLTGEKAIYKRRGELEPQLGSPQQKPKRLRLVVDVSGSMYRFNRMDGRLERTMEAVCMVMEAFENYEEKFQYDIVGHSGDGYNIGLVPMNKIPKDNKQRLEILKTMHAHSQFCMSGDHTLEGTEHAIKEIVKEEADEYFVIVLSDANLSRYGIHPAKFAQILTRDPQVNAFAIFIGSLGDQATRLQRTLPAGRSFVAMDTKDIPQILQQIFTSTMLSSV
UniProt Q9H9C1: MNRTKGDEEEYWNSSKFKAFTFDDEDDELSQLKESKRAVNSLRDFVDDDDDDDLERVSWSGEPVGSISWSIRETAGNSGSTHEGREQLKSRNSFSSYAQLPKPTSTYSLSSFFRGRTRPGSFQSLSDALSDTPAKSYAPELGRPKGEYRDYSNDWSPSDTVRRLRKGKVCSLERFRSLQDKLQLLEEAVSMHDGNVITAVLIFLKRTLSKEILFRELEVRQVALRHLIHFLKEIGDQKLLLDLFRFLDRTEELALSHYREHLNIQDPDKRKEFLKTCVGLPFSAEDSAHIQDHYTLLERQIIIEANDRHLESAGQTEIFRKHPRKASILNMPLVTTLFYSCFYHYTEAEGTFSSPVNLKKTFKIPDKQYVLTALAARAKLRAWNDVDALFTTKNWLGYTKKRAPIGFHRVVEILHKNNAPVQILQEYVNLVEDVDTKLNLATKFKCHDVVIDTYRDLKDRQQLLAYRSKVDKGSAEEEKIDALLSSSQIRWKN
UniProt O95785: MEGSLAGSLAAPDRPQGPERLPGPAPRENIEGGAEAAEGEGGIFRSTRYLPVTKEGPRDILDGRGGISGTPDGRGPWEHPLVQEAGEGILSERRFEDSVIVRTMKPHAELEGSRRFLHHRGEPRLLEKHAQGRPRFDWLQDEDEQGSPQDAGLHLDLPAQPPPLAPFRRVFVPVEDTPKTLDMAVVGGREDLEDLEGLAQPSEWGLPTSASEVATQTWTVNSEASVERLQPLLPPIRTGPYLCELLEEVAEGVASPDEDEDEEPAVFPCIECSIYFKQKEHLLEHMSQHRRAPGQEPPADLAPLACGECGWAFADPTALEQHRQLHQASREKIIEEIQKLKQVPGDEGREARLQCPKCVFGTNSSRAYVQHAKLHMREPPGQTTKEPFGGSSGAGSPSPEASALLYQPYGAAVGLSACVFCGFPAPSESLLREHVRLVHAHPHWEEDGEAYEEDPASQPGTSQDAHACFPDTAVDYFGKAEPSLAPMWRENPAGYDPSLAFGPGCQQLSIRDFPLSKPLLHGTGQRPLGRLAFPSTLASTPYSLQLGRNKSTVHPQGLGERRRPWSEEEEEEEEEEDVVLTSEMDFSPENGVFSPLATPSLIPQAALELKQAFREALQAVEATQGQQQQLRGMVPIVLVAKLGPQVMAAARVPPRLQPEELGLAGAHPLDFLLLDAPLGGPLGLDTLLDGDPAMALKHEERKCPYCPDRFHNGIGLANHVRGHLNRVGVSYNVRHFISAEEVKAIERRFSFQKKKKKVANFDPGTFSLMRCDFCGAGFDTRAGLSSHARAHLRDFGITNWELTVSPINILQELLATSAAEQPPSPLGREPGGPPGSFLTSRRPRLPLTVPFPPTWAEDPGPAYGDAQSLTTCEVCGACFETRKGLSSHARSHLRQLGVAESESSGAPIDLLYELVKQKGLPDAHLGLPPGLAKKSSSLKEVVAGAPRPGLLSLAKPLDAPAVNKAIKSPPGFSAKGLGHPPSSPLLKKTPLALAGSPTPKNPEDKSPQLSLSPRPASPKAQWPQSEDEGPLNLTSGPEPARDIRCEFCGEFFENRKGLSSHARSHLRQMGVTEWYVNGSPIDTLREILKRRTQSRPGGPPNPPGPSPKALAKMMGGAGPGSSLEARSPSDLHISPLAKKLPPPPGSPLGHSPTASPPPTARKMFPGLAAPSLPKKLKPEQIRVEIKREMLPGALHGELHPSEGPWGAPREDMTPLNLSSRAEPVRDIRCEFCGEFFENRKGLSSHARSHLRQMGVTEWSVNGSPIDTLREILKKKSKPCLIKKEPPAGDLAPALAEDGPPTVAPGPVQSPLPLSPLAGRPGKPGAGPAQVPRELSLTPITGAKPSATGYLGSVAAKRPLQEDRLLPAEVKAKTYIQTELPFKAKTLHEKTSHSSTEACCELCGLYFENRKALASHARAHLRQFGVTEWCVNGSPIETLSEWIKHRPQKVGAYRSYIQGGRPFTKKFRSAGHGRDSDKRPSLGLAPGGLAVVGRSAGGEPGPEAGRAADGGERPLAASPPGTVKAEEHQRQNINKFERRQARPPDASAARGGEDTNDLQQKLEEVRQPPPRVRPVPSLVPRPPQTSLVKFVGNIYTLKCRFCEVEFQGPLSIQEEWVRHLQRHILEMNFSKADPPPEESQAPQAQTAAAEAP
UniProt Q15061: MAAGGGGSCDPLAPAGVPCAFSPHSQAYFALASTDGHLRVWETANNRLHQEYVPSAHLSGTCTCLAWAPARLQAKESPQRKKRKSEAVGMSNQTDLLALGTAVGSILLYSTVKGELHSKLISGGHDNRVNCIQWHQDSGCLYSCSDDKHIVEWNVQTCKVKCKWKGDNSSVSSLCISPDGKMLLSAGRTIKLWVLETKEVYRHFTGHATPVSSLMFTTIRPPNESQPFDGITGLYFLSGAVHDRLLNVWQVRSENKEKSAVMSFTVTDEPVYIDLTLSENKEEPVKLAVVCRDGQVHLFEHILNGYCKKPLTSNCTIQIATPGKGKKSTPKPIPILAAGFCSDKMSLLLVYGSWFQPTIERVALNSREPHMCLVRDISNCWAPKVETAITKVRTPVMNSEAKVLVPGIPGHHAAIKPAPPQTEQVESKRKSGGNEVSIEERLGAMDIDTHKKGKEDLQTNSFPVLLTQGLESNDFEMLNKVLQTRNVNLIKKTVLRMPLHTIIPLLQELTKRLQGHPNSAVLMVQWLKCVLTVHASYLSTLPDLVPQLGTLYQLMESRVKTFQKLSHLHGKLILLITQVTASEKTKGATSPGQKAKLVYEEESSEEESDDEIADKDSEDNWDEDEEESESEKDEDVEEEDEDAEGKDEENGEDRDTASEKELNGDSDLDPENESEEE
UniProt Q6P4I2: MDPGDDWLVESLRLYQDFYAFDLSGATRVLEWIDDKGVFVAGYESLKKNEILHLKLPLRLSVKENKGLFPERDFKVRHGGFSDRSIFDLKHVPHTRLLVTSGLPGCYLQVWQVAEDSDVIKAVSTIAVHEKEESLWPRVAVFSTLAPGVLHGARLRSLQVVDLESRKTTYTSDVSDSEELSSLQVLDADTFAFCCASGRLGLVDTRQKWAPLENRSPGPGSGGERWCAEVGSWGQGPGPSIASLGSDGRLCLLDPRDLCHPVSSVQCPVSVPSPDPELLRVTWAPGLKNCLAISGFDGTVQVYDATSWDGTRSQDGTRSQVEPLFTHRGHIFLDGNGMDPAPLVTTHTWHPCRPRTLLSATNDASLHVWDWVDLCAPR
UniProt Q15906, whole entry, looked up: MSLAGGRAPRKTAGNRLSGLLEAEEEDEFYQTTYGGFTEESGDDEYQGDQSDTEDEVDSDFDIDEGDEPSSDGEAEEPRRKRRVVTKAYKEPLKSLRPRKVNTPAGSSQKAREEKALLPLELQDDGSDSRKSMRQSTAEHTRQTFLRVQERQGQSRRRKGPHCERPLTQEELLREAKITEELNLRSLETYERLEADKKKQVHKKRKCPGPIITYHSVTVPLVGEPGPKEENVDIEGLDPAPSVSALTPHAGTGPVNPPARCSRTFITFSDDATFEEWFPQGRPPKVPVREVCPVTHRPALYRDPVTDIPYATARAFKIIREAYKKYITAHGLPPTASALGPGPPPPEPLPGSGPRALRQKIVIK
UniProt Q8N1B4: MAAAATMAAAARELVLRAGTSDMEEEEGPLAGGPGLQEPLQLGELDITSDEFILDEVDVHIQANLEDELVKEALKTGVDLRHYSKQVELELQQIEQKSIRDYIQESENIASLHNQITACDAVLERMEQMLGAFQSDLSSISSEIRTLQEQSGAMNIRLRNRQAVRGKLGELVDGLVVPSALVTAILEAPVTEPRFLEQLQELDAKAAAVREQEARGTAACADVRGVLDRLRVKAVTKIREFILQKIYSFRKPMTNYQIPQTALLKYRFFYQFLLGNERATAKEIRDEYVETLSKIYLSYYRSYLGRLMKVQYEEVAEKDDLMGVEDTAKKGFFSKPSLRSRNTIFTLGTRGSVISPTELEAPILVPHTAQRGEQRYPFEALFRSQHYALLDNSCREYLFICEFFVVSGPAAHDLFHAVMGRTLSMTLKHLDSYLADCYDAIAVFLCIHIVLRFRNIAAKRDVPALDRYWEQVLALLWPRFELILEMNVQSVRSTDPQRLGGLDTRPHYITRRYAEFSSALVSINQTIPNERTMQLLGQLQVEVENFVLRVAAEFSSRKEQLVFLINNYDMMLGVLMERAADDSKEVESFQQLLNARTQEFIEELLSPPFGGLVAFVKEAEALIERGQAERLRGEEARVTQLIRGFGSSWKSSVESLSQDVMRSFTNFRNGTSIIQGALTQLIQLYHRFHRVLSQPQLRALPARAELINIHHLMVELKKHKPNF
UniProt Q9UGM6: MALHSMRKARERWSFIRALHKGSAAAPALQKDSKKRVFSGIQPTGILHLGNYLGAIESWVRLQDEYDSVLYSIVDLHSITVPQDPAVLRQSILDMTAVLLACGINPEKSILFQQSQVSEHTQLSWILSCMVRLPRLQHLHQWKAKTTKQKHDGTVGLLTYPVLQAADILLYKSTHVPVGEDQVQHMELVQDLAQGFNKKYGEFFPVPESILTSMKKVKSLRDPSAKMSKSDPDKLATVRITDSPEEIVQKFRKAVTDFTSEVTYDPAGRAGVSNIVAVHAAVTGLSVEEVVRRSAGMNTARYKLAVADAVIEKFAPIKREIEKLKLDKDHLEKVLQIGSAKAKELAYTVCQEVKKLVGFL

Tests used:
Test in all cases: log2 fold change, soluble protein after heating vs DMSO (PISA); higher = thermal stabilisation; K562 cells, 10 uM, 30 min; active = over 0.2 and 3.5 SD of the protein, either way, in both replicates (recomputed)
[1] = compound: C1=CC=C(C=C1)[C@H](COC2=CC3=C(C=C2)NC(=O)N3)NC(=O)C4=CC=CN(C4=O)CC5=CC(=C(C=C5)F)F
Procedure, shortened: (§1)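 K562 cells (2×10^6 cells/mL) were treated with 10 μM compound for 30 min, and aliquots were heated for 3 min over 48°C-58°C. Pooled aliquots were extracted in PBS with 0.5% NP-40 at 4°C, and the supernatant after 21,000xg for 90 min was measured by TMTpro 16plex LC-MS/MS with channel sums equalised. Reported thermal stability, relative to control samples and from duplicates, is a log2 fold change.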

[2] = compound: CC1=C(SC2=C1C(=N[C@H](C3=NN=C(N32)C)CC(=O)N)C4=CC=C(C=C4)Cl)C
Procedure, shortened: as §1

[3] = compound: CC1=C2C(=CC=C1)N=C(N(C2=O)C3=CC=CC=C3C)CN4C=NC5=C(N=CN=C54)N
Procedure, shortened: as §1

[4] = compound: Cc1sc2c(c1C)C(c1ccc(Cl)cc1)=N[C@@H](CC(=O)OC(C)(C)C)c1nnc(C)n1-2
Procedure, shortened: as §1

[5] = compound: c1ccc([C@@H]2C[C@H]2NC2CCNCC2)cc1
Procedure, shortened: as §1

Measured: log2 fold change

VWA8 (UniProt A3KMH1)
inactive: [1] -0.03 | [2] 0.023 | [3] 0.091 | [4] -0.044 | [5] -0.052

VIPAS39 (UniProt Q9H9C1)
inactive: [1] -0.111 | [2] -0.188 | [3] 0.068 | [4] 0.044 | [5] -0.037

WIZ (UniProt O95785)
inactive: [1] 0 | [2] -0.003 | [3] 0.06 | [4] 0.038 | [5] 0.023

WDR43 (UniProt Q15061)
inactive: [1] 0.026 | [2] 0.027 | [3] 0.009 | [4] -0.009 | [5] 0.001

WDR73 (UniProt Q6P4I2)
inactive: [1] 0.007 | [2] 0.05 | [3] 0.07 | [4] -0.017 | [5] 0.011

2 successive entries already listed, quoted:
VIPAS39 (UniProt Q9H9C1)
inactive: [1] -0.111 | [2] -0.188 | [3] 0.068 | [4] 0.044 | [5] -0.037

WIZ (UniProt O95785)
inactive: [1] 0 | [2] -0.003 | [3] 0.06 | [4] 0.038 | [5] 0.023

Next part.

VPS72 isoform 2 (UniProt Q15906)
inactive: [1] 0.123 | [2] -0.106 | [3] 0.055 | [4] 0.05 | [5] -0.013

VPS52 (UniProt Q8N1B4)
inactive: [1] 0.068 | [2] 0.036 | [3] 0.137 | [4] -0.057 | [5] -0.028

WARS2 (UniProt Q9UGM6)
inactive: [1] -0.025 | [2] -0.009 | [3] 0.104 | [4] -0.002 | [5] 0.06
